For some assays here: A weaker result is weaker than the reference pair of the same experiment. For some assays here: The exact form of at least one protein or probe is not confirmed. For some assays here: At least one verdict was read from the data and is not stated in words by the source.
Assays:
ABI1 full-length = experiment: fluorescence quenching or polarization; details: low micromolar, similar to HHR
[1] = molecular target: ABI1-HHR-DelEx4 del155-159 (UniProt Q8IZP0); experiment: NMR; details: 15N-1H HSQC titration, 80 uM protein, up to 7.5 eq DNA, 20 C; residues 93-170
[2] = molecular target: ABI1-HHR-DelEx4 del155-159 (UniProt Q8IZP0); experiment: fluorescence quenching or polarization; details: Kd shown only in figure; residues 93-170

Amino acid sequences for entries named in this document (tags omitted). A change or cut given only in a name is not applied to a line headed by its entry.
UniProt Q8IZP0: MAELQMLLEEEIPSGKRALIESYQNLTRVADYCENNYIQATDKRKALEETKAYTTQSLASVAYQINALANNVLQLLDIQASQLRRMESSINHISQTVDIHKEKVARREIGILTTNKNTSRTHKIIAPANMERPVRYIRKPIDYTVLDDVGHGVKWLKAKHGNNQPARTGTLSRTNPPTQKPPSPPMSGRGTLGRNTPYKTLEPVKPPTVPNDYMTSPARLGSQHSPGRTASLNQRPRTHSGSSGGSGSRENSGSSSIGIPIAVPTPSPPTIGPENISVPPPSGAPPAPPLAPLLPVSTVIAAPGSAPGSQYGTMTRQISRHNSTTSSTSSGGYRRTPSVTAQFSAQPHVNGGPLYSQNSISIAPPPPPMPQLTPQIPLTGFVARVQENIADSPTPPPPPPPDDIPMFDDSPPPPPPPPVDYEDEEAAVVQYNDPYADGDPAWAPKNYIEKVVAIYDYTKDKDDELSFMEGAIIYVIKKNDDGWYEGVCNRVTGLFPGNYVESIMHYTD

Sequence	binding result (ABI1 full-length)	binding result [1]	binding result [2]
GTGGTGGCTCTGAAAC (double strand) [BATF3]	binds		
CCCGAACTGTGCGGT (double strand) [EP300-AS1]	binds		
ACACTAATTGCAGGC (double strand) [HOXB4]	binds	binds more weakly	binds more weakly
GTCTGACTCGTCCTC (double strand) [L3MBTL2]	binds		
AGGCGCCGGCGTGTCA (double strand) [C1orf106]	binds		
GCGTCGTTAGGGCCC (double strand) [MIR1289-1]	binds		
